Some of the results follow. Most values lie at the level of the controls, where differences are scatter.

Protein sequences, listed by entry. Tags and fused reporters are not part of them. Lines headed by an entry give the natural chain unless they say otherwise; changes in a name come on top.
UniProt Q3BBV2: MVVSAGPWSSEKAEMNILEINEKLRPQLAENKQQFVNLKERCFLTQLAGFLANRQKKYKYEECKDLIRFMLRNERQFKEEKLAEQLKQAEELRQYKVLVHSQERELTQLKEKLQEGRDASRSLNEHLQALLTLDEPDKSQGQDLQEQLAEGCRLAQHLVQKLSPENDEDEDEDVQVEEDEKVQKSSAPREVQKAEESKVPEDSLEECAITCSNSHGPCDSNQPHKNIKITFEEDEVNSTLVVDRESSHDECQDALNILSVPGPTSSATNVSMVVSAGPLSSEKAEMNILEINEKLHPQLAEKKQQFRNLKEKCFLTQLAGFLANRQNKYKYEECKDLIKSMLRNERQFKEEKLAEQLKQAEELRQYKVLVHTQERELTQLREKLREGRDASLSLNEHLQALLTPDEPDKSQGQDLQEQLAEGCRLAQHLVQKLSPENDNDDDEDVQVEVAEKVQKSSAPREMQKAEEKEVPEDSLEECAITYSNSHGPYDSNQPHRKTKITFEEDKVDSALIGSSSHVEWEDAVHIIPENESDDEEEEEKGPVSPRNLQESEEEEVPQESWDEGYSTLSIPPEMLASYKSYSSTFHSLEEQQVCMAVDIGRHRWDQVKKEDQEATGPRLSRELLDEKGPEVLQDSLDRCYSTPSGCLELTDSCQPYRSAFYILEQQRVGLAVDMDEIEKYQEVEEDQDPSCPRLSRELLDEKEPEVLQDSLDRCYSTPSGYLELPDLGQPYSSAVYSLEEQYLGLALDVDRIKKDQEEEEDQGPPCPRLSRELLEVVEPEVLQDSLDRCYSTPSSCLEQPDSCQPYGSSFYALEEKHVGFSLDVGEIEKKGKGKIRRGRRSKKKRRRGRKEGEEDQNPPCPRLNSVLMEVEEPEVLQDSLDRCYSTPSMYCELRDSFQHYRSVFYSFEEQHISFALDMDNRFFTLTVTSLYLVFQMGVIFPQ
UniProt Q15031: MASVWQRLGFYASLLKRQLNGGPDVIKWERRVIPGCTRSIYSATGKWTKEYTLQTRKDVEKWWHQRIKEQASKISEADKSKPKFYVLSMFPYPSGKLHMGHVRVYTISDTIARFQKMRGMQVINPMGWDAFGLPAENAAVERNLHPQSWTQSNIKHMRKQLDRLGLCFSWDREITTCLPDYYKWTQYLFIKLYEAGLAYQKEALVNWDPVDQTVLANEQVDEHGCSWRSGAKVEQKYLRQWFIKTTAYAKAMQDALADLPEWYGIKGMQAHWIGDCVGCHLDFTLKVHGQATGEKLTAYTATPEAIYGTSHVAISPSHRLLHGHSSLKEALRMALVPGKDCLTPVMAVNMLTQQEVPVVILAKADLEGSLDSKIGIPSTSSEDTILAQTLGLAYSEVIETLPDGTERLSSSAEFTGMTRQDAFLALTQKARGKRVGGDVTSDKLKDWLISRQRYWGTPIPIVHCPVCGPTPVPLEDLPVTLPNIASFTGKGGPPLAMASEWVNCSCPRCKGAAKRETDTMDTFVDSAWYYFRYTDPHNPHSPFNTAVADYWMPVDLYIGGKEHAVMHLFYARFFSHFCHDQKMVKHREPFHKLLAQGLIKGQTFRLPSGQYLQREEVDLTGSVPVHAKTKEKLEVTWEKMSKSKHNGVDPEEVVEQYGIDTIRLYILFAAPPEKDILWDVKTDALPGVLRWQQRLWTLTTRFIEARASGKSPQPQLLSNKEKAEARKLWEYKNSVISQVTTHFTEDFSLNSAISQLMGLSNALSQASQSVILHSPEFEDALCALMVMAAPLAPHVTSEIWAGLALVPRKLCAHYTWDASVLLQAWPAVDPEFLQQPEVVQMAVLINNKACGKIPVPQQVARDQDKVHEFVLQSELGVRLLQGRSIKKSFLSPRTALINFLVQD
UniProt Q15286: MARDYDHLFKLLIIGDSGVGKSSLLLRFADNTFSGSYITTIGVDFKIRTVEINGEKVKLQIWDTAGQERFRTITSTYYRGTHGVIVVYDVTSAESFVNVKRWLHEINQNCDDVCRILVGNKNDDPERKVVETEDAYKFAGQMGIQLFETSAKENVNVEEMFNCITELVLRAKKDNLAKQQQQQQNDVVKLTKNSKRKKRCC
UniProt Q15032: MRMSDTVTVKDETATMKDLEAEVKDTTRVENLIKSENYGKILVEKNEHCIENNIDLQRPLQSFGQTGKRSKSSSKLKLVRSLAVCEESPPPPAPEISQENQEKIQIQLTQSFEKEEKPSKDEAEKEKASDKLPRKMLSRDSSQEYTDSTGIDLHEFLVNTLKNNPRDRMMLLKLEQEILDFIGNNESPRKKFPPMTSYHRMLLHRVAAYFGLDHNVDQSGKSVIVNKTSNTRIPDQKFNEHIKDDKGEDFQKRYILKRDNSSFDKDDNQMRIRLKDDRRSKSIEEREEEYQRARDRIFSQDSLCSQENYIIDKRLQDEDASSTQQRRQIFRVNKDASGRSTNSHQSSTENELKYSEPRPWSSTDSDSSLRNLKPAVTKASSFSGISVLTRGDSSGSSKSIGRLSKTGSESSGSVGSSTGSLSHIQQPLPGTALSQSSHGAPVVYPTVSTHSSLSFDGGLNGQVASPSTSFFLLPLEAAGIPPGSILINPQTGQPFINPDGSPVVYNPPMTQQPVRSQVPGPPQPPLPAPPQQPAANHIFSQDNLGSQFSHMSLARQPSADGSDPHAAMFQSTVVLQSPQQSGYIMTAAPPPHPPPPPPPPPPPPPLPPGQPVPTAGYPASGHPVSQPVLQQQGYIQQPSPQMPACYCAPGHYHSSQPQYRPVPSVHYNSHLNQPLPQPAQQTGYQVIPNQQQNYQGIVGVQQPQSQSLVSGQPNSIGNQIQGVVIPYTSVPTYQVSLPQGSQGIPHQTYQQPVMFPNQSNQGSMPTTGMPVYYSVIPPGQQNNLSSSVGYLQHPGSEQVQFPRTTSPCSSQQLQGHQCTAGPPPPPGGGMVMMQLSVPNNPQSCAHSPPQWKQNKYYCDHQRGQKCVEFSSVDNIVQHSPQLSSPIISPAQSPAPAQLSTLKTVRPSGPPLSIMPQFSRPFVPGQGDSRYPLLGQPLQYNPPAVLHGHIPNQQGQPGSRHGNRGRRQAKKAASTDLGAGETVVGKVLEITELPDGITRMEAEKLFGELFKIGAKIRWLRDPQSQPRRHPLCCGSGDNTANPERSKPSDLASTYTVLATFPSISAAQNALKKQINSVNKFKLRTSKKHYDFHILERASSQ
UniProt Q2KHR2: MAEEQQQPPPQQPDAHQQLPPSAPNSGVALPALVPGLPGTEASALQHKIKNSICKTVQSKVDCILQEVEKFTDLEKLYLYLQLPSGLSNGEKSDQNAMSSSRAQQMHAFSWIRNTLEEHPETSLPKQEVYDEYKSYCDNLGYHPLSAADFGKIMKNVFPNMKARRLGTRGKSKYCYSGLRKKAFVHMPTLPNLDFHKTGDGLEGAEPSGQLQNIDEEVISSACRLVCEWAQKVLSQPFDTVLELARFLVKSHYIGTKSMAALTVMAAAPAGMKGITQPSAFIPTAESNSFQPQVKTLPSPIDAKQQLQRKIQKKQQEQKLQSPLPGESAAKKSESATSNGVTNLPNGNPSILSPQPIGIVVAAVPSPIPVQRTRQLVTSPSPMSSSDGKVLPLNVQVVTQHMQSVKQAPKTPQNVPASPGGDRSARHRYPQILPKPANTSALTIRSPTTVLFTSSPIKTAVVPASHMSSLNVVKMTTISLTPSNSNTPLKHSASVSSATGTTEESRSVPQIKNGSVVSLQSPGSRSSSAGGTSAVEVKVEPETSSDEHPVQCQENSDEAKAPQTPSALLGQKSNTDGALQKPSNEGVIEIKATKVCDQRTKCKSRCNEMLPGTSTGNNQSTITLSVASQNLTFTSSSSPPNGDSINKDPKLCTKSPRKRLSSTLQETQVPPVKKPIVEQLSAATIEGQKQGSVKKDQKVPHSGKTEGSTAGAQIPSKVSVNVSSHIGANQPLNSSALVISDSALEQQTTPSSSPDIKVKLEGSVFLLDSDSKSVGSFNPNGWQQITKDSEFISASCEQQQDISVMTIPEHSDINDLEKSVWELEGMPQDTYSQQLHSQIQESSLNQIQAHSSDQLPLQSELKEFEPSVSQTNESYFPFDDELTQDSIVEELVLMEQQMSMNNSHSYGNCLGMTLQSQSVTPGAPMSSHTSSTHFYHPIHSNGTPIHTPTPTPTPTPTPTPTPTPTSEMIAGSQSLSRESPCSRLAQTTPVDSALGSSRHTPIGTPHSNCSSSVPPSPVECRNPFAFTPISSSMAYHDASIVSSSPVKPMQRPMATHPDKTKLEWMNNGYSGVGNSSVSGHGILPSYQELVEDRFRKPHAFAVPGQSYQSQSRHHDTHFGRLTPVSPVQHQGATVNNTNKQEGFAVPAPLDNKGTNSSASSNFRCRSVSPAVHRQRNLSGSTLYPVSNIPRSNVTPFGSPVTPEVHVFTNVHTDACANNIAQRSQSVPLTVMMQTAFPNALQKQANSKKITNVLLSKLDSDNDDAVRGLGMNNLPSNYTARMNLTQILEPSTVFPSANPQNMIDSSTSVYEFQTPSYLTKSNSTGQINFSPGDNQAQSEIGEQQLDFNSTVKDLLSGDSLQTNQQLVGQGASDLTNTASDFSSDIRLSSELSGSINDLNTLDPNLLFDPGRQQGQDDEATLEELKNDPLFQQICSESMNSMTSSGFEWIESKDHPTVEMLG
UniProt Q2M2Z5: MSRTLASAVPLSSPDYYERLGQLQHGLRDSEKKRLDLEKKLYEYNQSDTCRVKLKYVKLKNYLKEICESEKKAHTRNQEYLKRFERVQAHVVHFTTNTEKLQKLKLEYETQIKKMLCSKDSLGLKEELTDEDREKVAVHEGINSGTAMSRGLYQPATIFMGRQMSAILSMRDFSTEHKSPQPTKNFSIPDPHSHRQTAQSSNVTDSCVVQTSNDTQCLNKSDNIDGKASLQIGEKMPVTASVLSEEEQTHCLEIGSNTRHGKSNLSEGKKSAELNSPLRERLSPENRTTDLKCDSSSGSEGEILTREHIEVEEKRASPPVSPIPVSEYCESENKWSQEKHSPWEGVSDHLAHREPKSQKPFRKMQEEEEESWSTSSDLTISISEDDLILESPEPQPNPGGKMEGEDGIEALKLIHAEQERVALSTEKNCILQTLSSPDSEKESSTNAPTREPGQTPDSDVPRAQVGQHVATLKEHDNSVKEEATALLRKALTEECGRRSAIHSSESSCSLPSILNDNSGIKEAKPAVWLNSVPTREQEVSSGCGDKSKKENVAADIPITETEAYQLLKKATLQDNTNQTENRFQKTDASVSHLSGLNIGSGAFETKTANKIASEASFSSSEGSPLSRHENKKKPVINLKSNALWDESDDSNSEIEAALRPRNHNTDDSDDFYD
UniProt Q15424: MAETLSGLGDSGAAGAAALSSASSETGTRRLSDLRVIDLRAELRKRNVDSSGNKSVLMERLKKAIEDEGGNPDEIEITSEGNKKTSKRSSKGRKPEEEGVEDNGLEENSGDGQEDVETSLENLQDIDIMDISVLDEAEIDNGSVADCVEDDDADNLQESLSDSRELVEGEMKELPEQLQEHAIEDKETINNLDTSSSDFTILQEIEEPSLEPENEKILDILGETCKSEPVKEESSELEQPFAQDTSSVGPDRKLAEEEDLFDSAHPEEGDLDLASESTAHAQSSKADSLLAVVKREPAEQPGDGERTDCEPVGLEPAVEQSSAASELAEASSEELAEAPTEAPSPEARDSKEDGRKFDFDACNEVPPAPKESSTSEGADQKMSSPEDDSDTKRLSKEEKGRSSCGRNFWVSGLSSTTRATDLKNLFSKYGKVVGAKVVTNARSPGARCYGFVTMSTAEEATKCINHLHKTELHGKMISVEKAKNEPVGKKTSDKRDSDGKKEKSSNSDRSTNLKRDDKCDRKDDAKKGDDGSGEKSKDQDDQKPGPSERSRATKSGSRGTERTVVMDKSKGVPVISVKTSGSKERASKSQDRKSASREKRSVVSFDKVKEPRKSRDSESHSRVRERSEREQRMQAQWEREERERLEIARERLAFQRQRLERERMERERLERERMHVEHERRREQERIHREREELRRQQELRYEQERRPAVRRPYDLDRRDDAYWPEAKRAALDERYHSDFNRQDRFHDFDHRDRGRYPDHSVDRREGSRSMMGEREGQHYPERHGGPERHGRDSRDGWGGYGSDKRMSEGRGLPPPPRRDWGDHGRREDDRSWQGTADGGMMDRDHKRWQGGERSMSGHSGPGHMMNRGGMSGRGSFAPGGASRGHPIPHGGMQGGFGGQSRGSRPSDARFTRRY

Compound in this experiment: Cc1nc(Nc2ncc(C(=O)Nc3c(C)cccc3Cl)s2)cc(N2CCN(CCO)CC2)n1 [dasatinib]
The experiment in a line: log2 fold change of tryptic peptide abundance, ligand vs vehicle (limited proteolysis) (log2 ratio); higher = more trypsin-susceptible (destabilized). The note with it: ligand concentration: 5 uM; sample: K562 cleared lysate.
As to “PPP2R5B (peptide sequence: CVSSPHFQVAER, peptide start residue: 410) (UniProt Q15173)”, the log2 fold change is 0.125.
Turning to “CDC37 (peptide sequence: EYEEEER, peptide start residue: 277) (UniProt Q16543)”, the log2 fold change turned out to be 0.0906.
The same measure for “PPP1R7 (peptide sequence: ELDLYDNQIK, peptide start residue: 124) (UniProt Q15435)”: -0.14; for “UniProt Q15831 (peptide sequence: IDSTEVIYQPR, peptide start residue: 29)”: 0.105; for “UniProt Q3BBV2 (peptide sequence: HVGFSLDVGEIEKK, peptide start residue: 817)”: -0.0955.
In the case of “FAM98C (peptide sequence: ALCGGDGAAALREPGAGLR, peptide start residue: 96) (UniProt Q17RN3)” it was 0.186; in that of “UniProt Q16825 (peptide sequence: PGLAQDPPGCPR, peptide start residue: 737)”, 0.587; in that of “LARS2 (peptide sequence: VYTISDTIAR, peptide start residue: 104) (UniProt Q15031)”, 0.217.
“NCOA1 (peptide sequence: SEILPASLQSATARPTSR, peptide start residue: 847) (UniProt Q15788)”: the log2 fold change was -0.0777.
For “TAF1C (peptide sequence: VLLTQYLGHSSPK, peptide start residue: 438) (UniProt Q15572)”, the log2 fold change worked out at 0.537.
The same measure for “UniProt Q16760 (peptide sequence: VLCETVKDFVAR, peptide start residue: 506)”: -0.416; for “HKDC1 (peptide sequence: MLPTFVR, peptide start residue: 63) (UniProt Q2TB90)”: 0.0289; for “UniProt Q15286 (peptide sequence: WLHEINQNCDDVCR, peptide start residue: 102)”: -0.567.
Regarding “DBN1 (peptide sequence: EQSIFGDHRDEEEETHMK, peptide start residue: 253) (UniProt Q16643)”, the log2 fold change is 0.0877.
As to “SF3A1 (peptide sequence: LKTEDSLMPEEEFLR, peptide start residue: 685) (UniProt Q15459)”, the log2 fold change is -0.155.
On to “HADH (peptide sequence: LVAENKFGK, peptide start residue: 296) (UniProt Q16836)”, for which the log2 fold change was 0.274.
In the case of “UniProt Q16637 (peptide sequence: SPGNKSDNIKPK, peptide start residue: 175)” it was 0.704; in that of “QRICH1 (peptide sequence: MVGTTSVVK, peptide start residue: 361) (UniProt Q2TAL8)”, -0.0519.
With “R3HDM1 (peptide sequence: QNKYYCDHQR, peptide start residue: 853) (UniProt Q15032)”, the log2 fold change is -1.13.
Regarding “RFX7 (peptide sequence: TPQNVPASPGGDR, peptide start residue: 314) (UniProt Q2KHR2)”, the log2 fold change was 0.467.
Regarding “MAPRE2 (peptide sequence: SSPAAKPGSTPSRPSSAK, peptide start residue: 208) (UniProt Q15555)”, the log2 fold change is -0.0933.
The same measure for “TSC22D1 (peptide sequence: SHLMYAVREEVEVLKEQIK, peptide start residue: 699) (UniProt Q15714)”: -0.161.
On to “SURF2 (peptide sequence: KDLGSTEDGDGTDDFLTDKEDEK, peptide start residue: 179) (UniProt Q15527)”, for which the log2 fold change was determined as 0.211.
As to “LRRC14 (peptide sequence: MHTLVFLSTR, peptide start residue: 1) (UniProt Q15048)”, the log2 fold change is 0.185.
In the case of “KIZ (peptide sequence: EQEVSSGCGDKSKK, peptide start residue: 536) (UniProt Q2M2Z5)” it was 0.985.
In the case of “CWF19L2 (peptide sequence: DKRPGSLETCR, peptide start residue: 338) (UniProt Q2TBE0)” it was -0.516.
In the case of “RPS6KA2 (peptide sequence: SKRDPSEEIEILLR, peptide start residue: 452) (UniProt Q15349)”, the log2 fold change is -0.125.
On to “TEAD2 (peptide sequence: KQVSSHIQVLAR, peptide start residue: 88) (UniProt Q15562)”, for which the log2 fold change amounted to 0.235.
With “CPSF6 (peptide sequence: GFALVGVGSEASSK, peptide start residue: 125) (UniProt Q16630)”, the log2 fold change was -0.14.
Regarding “TSR1 (peptide sequence: AKEELIFHCGFRR, peptide start residue: 610) (UniProt Q2NL82)”, the log2 fold change stood at 0.425.
“SAFB (peptide sequence: ELPEQLQEHAIEDK, peptide start residue: 173) (UniProt Q15424)”: the log2 fold change came to 0.263.
In the case of “UniProt Q15370 (peptide sequence: RPPDEQR, peptide start residue: 37)” it was 0.379; in that of “UniProt Q15327 (peptide sequence: QREAELK, peptide start residue: 65)”, 0.0175.
In the case of “GUK1 (peptide sequence: VAVQAVQAMNR, peptide start residue: 86) (UniProt Q16774)” it was 0.0872; in that of “UniProt Q15329 (peptide sequence: AAADTLAVR, peptide start residue: 78)”, -0.178.
The same measure for “SS18 (peptide sequence: QRGKGEITPAAIQK, peptide start residue: 10) (UniProt Q15532)”: -0.689.

The record behind these values is the supplement of paper PMC12819154, “High-throughput peptide-centric local stability assay extends protein–ligand identification to membrane proteins, tissues and bacteria” (Nature Structural & Molecular Biology, 2025).
